# Library screen at single concentrations

Sequences of proteins named here, by UniProt entry; tags and fusion partners are left off.
UniProt P9WPC5, whole entry: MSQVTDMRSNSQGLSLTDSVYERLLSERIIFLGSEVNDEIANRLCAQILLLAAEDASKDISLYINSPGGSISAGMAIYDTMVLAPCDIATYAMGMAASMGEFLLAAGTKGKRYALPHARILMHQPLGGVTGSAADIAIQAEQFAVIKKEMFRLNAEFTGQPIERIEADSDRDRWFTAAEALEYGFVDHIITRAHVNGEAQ
UniProt P9WPC3, whole entry partner: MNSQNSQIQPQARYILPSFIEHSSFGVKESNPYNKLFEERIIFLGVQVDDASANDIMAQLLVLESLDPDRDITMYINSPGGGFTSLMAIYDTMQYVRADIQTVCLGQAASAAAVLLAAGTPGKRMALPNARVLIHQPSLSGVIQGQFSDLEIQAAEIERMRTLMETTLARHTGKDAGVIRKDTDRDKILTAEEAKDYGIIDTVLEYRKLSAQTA

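ClpP1P2, Mycobacterium tuberculosis (UniProt P9WPC5 and UniProt P9WPC3). Protease assay of ClpP1P2, read by the AMC dye that it sets free. Tested at 50 µM. Higher reads as stronger inhibition, judged from the few compounds that gave an IC50. Most other retested compounds had strongly negative values. Size under these conditions: about 69,000 compounds, about 10 of them at 50% or above in at least one test.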

Values are the deposited “Percent Effect”, in %.
The controls that fix the scale are not given in the record; negative values are as filed.
Compounds were drawn at random from those tested, without regard to their results.

| Compound | percent effect |
|---|---|
| `O=C(CCn1ccc(=O)[nH]c1=O)N1CCC(Oc2ccccn2)CC1` | 1.968 |
| `CCOCC1CC2(CCN(Cc3ccccn3)CC2)CO1` (configuration not stated) | -2.323 |
| `COCCN(CC(C)C)C(=O)c1cccc(Nc2cnccn2)c1` | -1.043 |
| `CC(C)NC(=O)C1CCc2nnc(CNC(=O)c3cccnc3)n21` (configuration not stated) | -4.977 |
| `CCc1nnc2n1CCN(C(=O)c1cc3ccc(F)cc3nc1C)C2` | 8.138 |
| `CC(NC(=O)NCc1cc[nH]n1)c1ccc2c(c1)CCC(=O)N2` (configuration not stated) | 8.8 |
| `COc1ccc(OC(F)F)c(NCC(=O)NCC(=O)N2CCCC2)c1` | -3.233 |
| `Cc1nc(-c2ccsc2)ccc1C(=O)N(C)CC1CC1` | -31.55 |
| `CNC(=O)[C@@H](c1ccccc1OC)N1CCC[C@H]1C(=O)NC(C)(C)C` | -6.807 |
| `CN1C(=O)C2(CCNCC2)c2cc(F)ccc21` | -0.5553 |
| `CC(C)c1ccc(CN2CCC3(CCCN(c4nncs4)C3)C2)cc1` (configuration not stated) | -1.901 |
| `COc1cccc(NC(=O)NCc2cnn(C)c2)c1` | -1.603 |
| `O=C(c1nc(=O)[nH][nH]1)N1CCC2(CCCCC2)C1` | -10.69 |
| `COCCN(C)C(=O)c1nc2c(s1)CCCN2c1ccc(C)nn1` | 0.09402 |
| `CCOc1ccc(-n2nnc(C(=O)O)c2-c2ccccn2)cc1` | -3.196 |
| `CCCn1cc(C(=O)NCCC(=O)NC2CCCCC2)c(C)n1` | -5.671 |
| `O=C(Nc1cn[nH]c1)N1CCN(CCSc2ccccc2)CC1` | 17.11 |
| `CCN1C[C@H]2CCN(C(=O)C3CCCO3)CC[C@H]2S1(=O)=O` (some centres not stated) | -0.977 |
| `CCCN1CCC(N(Cc2ncc(C)o2)C(C)=O)C1` (configuration not stated) | -17.55 |
| `Cc1cnn(CC2CCCCN2C(=O)c2cccc3c2OCO3)c1` (configuration not stated) | -8.388 |
| `O=C(CCc1ccc(C(F)(F)F)cc1)N1CCCS1(=O)=O` | 4.317 |
| `COc1cc2cc3c(nc2cc1OC)OCCN(Cc1cccs1)C3` | -21.97 |
| `CC[C@H]1CN2CC[C@H]1C[C@@H]2CNC(=O)c1ccco1` | -7.796 |
| `Cc1ccc(Cl)c(C(C(=O)O)N(C)Cc2cnn(C)c2)c1` (configuration not stated) | -22.81 |
| `CCc1nccn1-c1nccnc1C1CCCN(C(=O)COC)C1` (configuration not stated) | -1.928 |
| `COC(=O)C1CCCN1Cc1ccco1` (configuration not stated) | -2.244 |
| `CN(Cc1csc(-c2cccs2)n1)Cc1ncccc1C(=O)O` | 6.981 |
| `Fc1ccc(OC2CCN(Cc3nnc(-c4ccco4)o3)CC2)cc1` | 4.252 |
| `CCC(CNC(=O)c1nc(=O)[nH][nH]1)Oc1cccc(C(F)(F)F)c1` (configuration not stated) | 0.03035 |
| `Cc1ccc2nc(C(=O)N3CCNC(=O)C3c3cccc(F)c3)cn2c1` (configuration not stated) | 14.99 |
| `Cc1nc(N(Cc2ccncc2)CC2CCCO2)c2ccsc2n1` (configuration not stated) | -11.96 |
| `Cc1cc(NCc2ccc(S(N)(=O)=O)cc2)nc(C)n1` | 16.96 |
| `Cc1nc(C2CCCN(C(=O)c3ccc(OCC4CC4)cc3)C2)no1` (configuration not stated) | -3.307 |
| `O=C(Cn1ccc2ccc(Br)cc21)NCc1ccc(C(=O)O)cc1` | -3.844 |
| `COc1ccc(CC2CN(Cc3cncn3C)CCO2)cc1` (configuration not stated) | -11.38 |
| `COc1ccc(C2=CCN(C(=O)C3CCS(=O)(=O)C3)CC2)cc1` (configuration not stated) | -23.24 |
| `COCCn1cc(C(=O)N2CCCC2c2noc(C)n2)ccc1=O` (configuration not stated) | 18.65 |
| `CCc1cc(N2CCC(F)(F)CC2)n2nc(C)c(C)c2n1` | 2.962 |
| `N#Cc1ccc(CNCCn2cccn2)c(F)c1` | -18.28 |
| `Cc1cc(C(=O)N2CCC3(CCC(=O)N(CC(N)=O)C3)CC2)ccc1O` | -25.28 |
| `Cc1ccc(-n2ccnc2-c2cn(C3CCNCC3)nn2)c(Cl)c1` | -15.13 |
| `O=C(c1cnc[nH]1)N1CCC(Oc2cccnc2)CC1` | 4.746 |
| `CNc1nc(CNC(=O)Nc2cccc(F)c2)cs1` | 6.54 |
| `Cc1ccccc1CN1CC[C@H](c2nnc(-c3cncn3C)o2)C1` | 3.191 |
| `COCC1CN(C(=O)c2cccc(C)n2)Cc2nccn2C1` (configuration not stated) | -6.004 |
| `CCn1ncc(S(=O)(=O)N2CCCC3(CC=CNC3=O)C2)c1C` (configuration not stated) | -14.93 |
| `COCCN(Cc1ccoc1)S(=O)(=O)c1ccc(F)c(Cl)c1` | -27.03 |
| `COCC(=O)NC[C@@]1(COc2cnccn2)C[C@@H](O)[C@@H](O)C1` | -6.434 |
| `COc1ccc(C2SCC(=O)Nc3ccsc32)cc1` (configuration not stated) | -2.348 |
| `COCCCNC(=O)Nc1cccc(Cl)c1-n1cccn1` | 3.382 |
| `CN(C)CC1(O)CCN(C(=O)Cc2ccc(Cl)c(Cl)c2)C1` (configuration not stated) | -6.711 |
| `COC(=O)COc1ccc(-c2noc(C3CCCO3)n2)cc1` (configuration not stated) | -0.7266 |
| `COC(=O)CC(NC(=O)c1cccc(CS(C)(=O)=O)c1)c1cccs1` (configuration not stated) | 6.249 |
| `O=C(NCC[S+]([O-])Cc1ccccc1)c1ccc2[nH]c(=O)[nH]c2c1` (configuration not stated) | 0.06691 |
| `O=C1CC2(CCN(C(=O)c3csc(-c4ccccc4)n3)C2)C(=O)N1` (configuration not stated) | -8.569 |
| `Cc1nc(C2CCCN2CC(=O)N(C)Cc2ccsc2)no1` (configuration not stated) | -20.87 |
| `NC(=O)C1CCCN1Cc1ccccc1NC(=O)Cc1cccc(F)c1` (configuration not stated) | -4.923 |
| `Cc1noc(CNC(=O)NCCc2ccc(Cl)cc2)n1` | -8.873 |
| `C[C@H](c1ccc(F)cc1)n1c(C2CCC2)n[nH]c1=O` | -5.297 |
| `COc1cccc([C@@H]2CN(C3CSCCSC3)C[C@H]2C(=O)O)c1` | 4.654 |
| `CC1=N[C@@]2(CC[C@@H]3CN(Cc4ccccc4)C[C@@H]32)C(=O)N1CC1CC1` | 13.25 |
| `COCCN1C(=O)[C@]2(CC[C@@H]3CN(S(=O)(=O)CC(C)C)C[C@@H]32)N=C1C` | 4.77 |
| `O=C(Cc1ccccc1)N1CCC2(CCN2Cc2ccc(F)cc2)C1` (configuration not stated) | -2.15 |
| `NC(=O)COc1ccc(CNC(=O)CN2CCc3ccccc32)cc1` | -19.38 |
| `CC(C)c1nc(NS(=O)(=O)c2ccccc2Cl)no1` | 8.897 |
| `CCc1noc(C2CCCCN2C(=O)c2ccccc2)n1` (configuration not stated) | 16.08 |
| `CN(C)CC1CSCCCN1C(=O)c1cccc(C(F)(F)F)c1` (configuration not stated) | -7.571 |
| `Cc1c(C(=O)N2CCN(C)[C@@H]3CS(=O)(=O)C[C@@H]32)[nH]c2ccc(F)cc12` | -13.05 |
| `CC(C)n1cnc2c1C(C(=O)N1CCCC1)N(CC1CC1)CC2` (configuration not stated) | -1.54 |
| `CCS(=O)(=O)N1CC[C@H]2[C@H]1CC(=O)N2Cc1csc(C)n1` | 21.84 |
| `COC[C@@H]1CCC[C@]12CN(Cc1cccc(C)n1)CCO2` | 4.394 |
| `Cc1noc(-c2ccnc(N3CCC(N4CCCC4)CC3)c2)n1` | -2.71 |
| `CCOc1ccc(C(F)(F)F)cc1NC(=O)N1CCNC(=O)C1` | -10.34 |
| `CCc1ncncc1C(=O)NCCNS(=O)(=O)c1ccccc1` | 3.993 |
| `CC(C)Oc1ncc(C(=O)N2CCCC(C(=O)O)C2)cc1Cl` (configuration not stated) | 2.059 |
| `CNC(=O)[C@H]1CC[C@@H]2[C@@H](CCN2CCOCc2ccccc2)O1` | 4.082 |
| `CCN(Cc1nccs1)Cc1cc(Cl)ccc1OC` | -11.8 |
| `Cc1ccc(S(=O)(=O)N2CC(C)Oc3ncccc32)c(C)c1` (configuration not stated) | -12.61 |
| `O=C1CCCN1C1CCN(S(=O)(=O)CCOc2ccc(F)cc2)CC1` | 0.05383 |
| `Cc1cc(CN2CCN(C(=O)CCCc3nc(C(C)C)no3)CC2)on1` | -10.97 |
| `O=C(c1cn2cc(Cl)cnc2n1)N1CCOCC(O)(CN2CCCC2)C1` (configuration not stated) | -7.447 |
| `CCNC(c1ccc(OC)cc1)c1cccnc1` (configuration not stated) | -2.328 |
| `COc1cccc(CN2C[C@@H]3COC[C@]3(CN3CCOCC3)C2)c1` | 3.395 |
| `CCn1ncc(CN2CCC(c3ncc(Cl)cc3S(C)(=O)=O)CC2)c1C` | -1.359 |
| `CCOc1ccc(Br)cc1S(=O)(=O)N(CC)Cc1ccc(N(C)C)cc1` | 5.915 |
| `COC(=O)N1CCCC(C(=O)NCc2cc3cccc(OC)c3o2)C1` (configuration not stated) | -2.53 |
| `COc1ccccc1OCCn1c(C)c(C)oc1=O` | -3.675 |
| `CCN(C)S(=O)(=O)NCC(O)c1cc2ccccc2s1` (configuration not stated) | -7.251 |
| `O=C(N[C@H]1CCCC[C@@H]1O)c1ccc(-c2nc3ccccc3[nH]2)cc1` | -2.226 |
| `CN(C)c1ncccc1CNC(=O)N1CCCC1CN1CCCCC1` (configuration not stated) | 11.38 |
| `CCS(=O)(=O)N1C[C@H]2CC[C@](O)(c3ccc(C)cc3)[C@H]2C1` | -0.8152 |
| `CCOc1ncnc2c1CCN(c1cc(C(F)(F)F)ncn1)CC2` | -13.17 |
| `COc1cccc(OC2CN(C(=O)Cn3nc4ccccc4n3)C2)c1` | -5.947 |
| `Cc1ncc2c(n1)CN(CC(=O)N1CCc3sccc3C1)CC2` | -24.71 |
| `Cc1ncsc1CCN(C)Cc1cc2n(n1)CCN(Cc1ncc[nH]1)C2` | 15.75 |

For reference, 11 entries once more:

Compound	percent effect
CN(C)CC1(O)CCN(C(=O)Cc2ccc(Cl)c(Cl)c2)C1 (configuration not stated)	-6.711
CCOCC1CC2(CCN(Cc3ccccn3)CC2)CO1 (configuration not stated)	-2.323
COCC(=O)NC[C@@]1(COc2cnccn2)C[C@@H](O)[C@@H](O)C1	-6.434
COCC1CN(C(=O)c2cccc(C)n2)Cc2nccn2C1 (configuration not stated)	-6.004
CCCn1cc(C(=O)NCCC(=O)NC2CCCCC2)c(C)n1	-5.671
CCc1cc(N2CCC(F)(F)CC2)n2nc(C)c(C)c2n1	2.962
O=C1CC2(CCN(C(=O)c3csc(-c4ccccc4)n3)C2)C(=O)N1 (configuration not stated)	-8.569
Cc1cc(CN2CCN(C(=O)CCCc3nc(C(C)C)no3)CC2)on1	-10.97
CCOc1ccc(Br)cc1S(=O)(=O)N(CC)Cc1ccc(N(C)C)cc1	5.915
CCS(=O)(=O)N1CC[C@H]2[C@H]1CC(=O)N2Cc1csc(C)n1	21.84
CC(C)NC(=O)C1CCc2nnc(CNC(=O)c3cccnc3)n21 (configuration not stated)	-4.977

Source: ChEMBL document CHEMBL3988442, “University of Dundee, Small-Polar-MMV Screening Library” (2021).